## Library screen at single concentrations

Amino acid sequences for entries named in this document (tags omitted).
UniProt P9WFT3, whole entry: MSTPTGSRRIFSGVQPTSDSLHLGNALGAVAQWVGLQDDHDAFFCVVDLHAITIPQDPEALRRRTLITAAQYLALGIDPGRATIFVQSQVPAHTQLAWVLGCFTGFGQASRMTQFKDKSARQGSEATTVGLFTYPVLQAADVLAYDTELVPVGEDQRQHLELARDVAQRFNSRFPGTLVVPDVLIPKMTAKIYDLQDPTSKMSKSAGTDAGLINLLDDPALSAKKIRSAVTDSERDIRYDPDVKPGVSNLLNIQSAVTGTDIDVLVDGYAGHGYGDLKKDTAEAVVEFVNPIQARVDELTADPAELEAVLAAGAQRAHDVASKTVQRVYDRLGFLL

Each number is a percent effect as filed. How 0% and 100% were set is not recorded. Most values in the screen are low, and negative values occur. The compounds are a random part of those screened. Two or more numbers in one place are separate tests of the same structure; such repeats can differ widely. A dash means the value is not listed here; it may have been measured.

A: 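Cell assay of Leishmania donovani living inside macrophages; the read-out is not stated. Compounds at 30 µM. Higher reads as stronger inhibition (inferred: compounds with an IC50 in retests scored well above the rest). About 69,000 compounds were tested under these conditions; 1.5% (about 1,000) showed 50% or more at least once.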
B: 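Tryptophan-tRNA ligase, Mycobacterium tuberculosis (UniProt P9WFT3). Enzyme assay of tryptophanyl-tRNA synthetase; the read-out is not stated. Concentration: 10 µM. Direction is not recorded; retested compounds ran higher, which suggests that high means inhibition. About 65,000 compounds were tested under these conditions; 0.098% (about 64) showed 50% or more at least once.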
C: 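Whole-parasite assay of Trypanosoma brucei over 72 hours; the read-out is not stated. Tested at 30 µM. Higher reads as stronger inhibition (inferred: compounds with an IC50 in retests scored well above the rest). Values scatter widely below zero; nearly all retest evidence comes from the higher of the two concentrations used. Of about 64,000 compounds tested this way, about 940 (1.5%) reached 50% or more in at least one test.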

compound,A,B,C
CCOc1ccc(Cl)c(C(=O)N2CCCC(N3CCCC3)C2)n1 (stereo not shown),8.884,-2.374,-17.02
CNc1nc2c(s1)C(c1ccccc1F)CC(=O)N2 (stereo not shown),25.3,2.305,-61.22
CN1CCOC(CNCc2nc(-c3ccccc3)cs2)C1 (stereo not shown),14.59,-4.799,-15.34
O=C(O)C(F)(F)F.[H][C@@]12CCN(Cc3cc(C)on3)C[C@]1([H])OCCN(c1ccccc1)C2=O,-25.46,-,-11.61
CNc1nc(C2CCCN(C(=O)C(C)C)C2)nc2c1CN(C)CC2 (stereo not shown),16.87,30.9,-11.23
CC(C)(C)CC1CCCN1Cc1nc(-c2ccco2)no1 (stereo not shown),-3.042,-2.291,-30.75
Cc1nnc(C(C)N2CCCN(Cc3ccc(F)cc3)CC2)o1 (stereo not shown),28.55,-6.088,-6.724
Cn1cc(-c2nc(CN3CCN(c4nccs4)CC3)cs2)cn1,20.59,-13.62,13.8
CC(=O)N1CCC(c2nccnc2CNC(=O)c2cc[nH]n2)CC1,15.24,-3.329,-
CCS(=O)(=O)c1ccc(N2CCC(NC(=O)CCC(C)C)CC2)cc1,63.78,-0.7105,28.16
CSc1ncccc1C(=O)N1CCC2(CC1)OCCCC2O (stereo not shown),14.75,-4.164,-54.18
O=C(O)C(F)(F)F.O=C(O)C(F)(F)F.[H][C@@]12CN(CCOC)C[C@]1([H])[C@@H](OC)CCN2S(=O)(=O)c1cccnc1,4.466,-,-139.1
CCn1ccnc1S(=O)(=O)Cc1ccc(C(N)=O)cc1,-0.114,-0.5128,-38.93
COc1ccc(O[C@H]2COCCN(Cc3c[nH]c4ccccc34)C2)cc1,8.641,8.509,-11.92
Cc1nc(C)n(CC2CCCN2Cc2cn(-c3ccccc3)nn2)n1 (stereo not shown),-39.37,-2.111,-3.712
CC(C)S(=O)(=O)CCN1CCc2c(ncn2C2CC2)C1,-4.032,5.305,-
Cc1ccccc1CC1(CO)CCCN(c2ncnc3sccc23)C1 (stereo not shown),67.14,-1.722,-9.987
COc1cccc(OCC2CCCN(Cc3ccncc3)C2)c1 (stereo not shown),11.44,3.524,30.97
O=C(O)C(F)(F)F.[H][C@@]12CN(Cc3nccs3)C[C@]1([H])C(=O)N(c1cncnc1)C2,24.38,-,20.15
COCCNC(=O)c1ccc2c(=O)n3c(nc2c1)CCCC3,25.01 & -6.283,4.022,-20.47
CC(C)CCN1CCN(C(=O)c2c[nH]c(=O)[nH]2)CC1,2.558,-0.768,-1.155
CCN1CCN(S(=O)(=O)c2cc(Cl)c(Cl)cc2C)CC1,23.98,2.9,-18.21
Cc1cn2c(n1)CCC(NC(=O)CCC(F)(F)F)C2 (stereo not shown),-20.9,-1.072,21.32
O=C(Nc1cccc(CN2CCOC2=O)c1)N1CCSCC1,20.27,-2.844,53.61
NC(=O)[C@H]1CCCN1C(=O)c1csc(-c2ccc(C(F)(F)F)cc2)n1,23.35,4.515,-45.25
Cc1nn(C(C)C)cc1S(=O)(=O)N(C)Cc1nonc1C,-7.391,-8.973,-19.46
Cc1ccc2c(n1)N(CC1CC1)CCN(S(=O)(=O)C1CC1)C2,-,-3.294,-
CC(=O)N1CCC(c2nn(C)c3nccnc23)C1 (stereo not shown),5.658,-,-20.01
CC(C)c1nn(C)c(Cl)c1CNCc1ccc2c(c1)OCCO2.Cl,22.38,-,41.47
Cn1cnc2c1C(C(=O)N1CCCC1)N(S(C)(=O)=O)CC2 (stereo not shown),16.53,-4.209,-33.36
COCCn1ccnc1C1CCCN(c2cnccn2)C1 (stereo not shown),-15.43,-3.763,-
O=C(NCC(O)COc1ccccc1)Nc1nncs1 (stereo not shown),-1.503,1.866,1.408
COCc1noc(Cc2cc(Cl)c3c(c2)OCCCO3)n1,-17.13,1.36,-24.43
CNC(=O)CN1CCOCC2(C1)CN(C(=O)C(C)C)CCO2 (stereo not shown),-,2.905,-
Cc1csc(NC(=O)c2cnc(C3CCCN(C)C3)cn2)n1 (stereo not shown),18.51,-13.33,-9.862
O=C(NC1CC1)N1CCc2ncc(CN3CCOCC3)n2CC1.O=C(O)C(F)(F)F,46.47,-,-79.64
CCOc1ccc(CN2CCC(c3[nH]ncc3C)C2)cc1CO (stereo not shown),47.03,-3.179,-13.76
CC(C)OC(=O)N1CCCC2(CCC(=O)N(CCc3c[nH]cn3)C2)C1 (stereo not shown),7.606,-3.936,-34.43
Cn1ccnc1CN(CCCO)CC(F)(F)F,20.13,-4.624,-12.62
Cn1cc(S(=O)(=O)NCc2ccc(F)cc2)cn1,12.62,-0.3886,-9.75
Cc1c(C(=O)N2CCOCC2)n(C)c2ccc(Cl)cc12.Cl,19.33,-,14.62
[H][C@]12CN(C(=O)c3ccno3)CCN1C(=O)N(CCOC)C2,-19.02,-,-19.01
CC(O)CN1CCN(C(=O)CN(C)c2ccc(C#N)cn2)CC1 (stereo not shown),-1.14,9.106,-0.702
COc1cc(CN(C)[C@@H]2COC[C@H]2c2ccc(F)cc2)cc(OC)c1,-,12.34,-
Cc1cccc(CN2CCC3(CCCN(C(=O)c4ccsc4)C3)C2=O)n1.O=C(O)C(F)(F)F (stereo not shown),35.52,-,11.6
COc1ccc2cc(C(=O)NCCNc3ccc(C)nn3)[nH]c2c1,18.41,-1.354,-42.49
COc1cc(C(C)=O)ccc1OCCNCc1ccco1.Cl,31.62,-,-6.522
Cc1cc(CN(CCO)Cc2cc(Br)ccc2F)no1,2.901,-4.575,-
CN1CCN(C(=O)c2cc[nH]c(=O)c2)Cc2ccccc21,27.49,2.056,-7.075
COc1c(C2CCCN2C(=O)c2ccc3cc[nH]c3c2)c(C)nn1C (stereo not shown),7.642,1.173,23.87
COC1CCN(c2cc(C(C)C)nc3ccnn23)C1 (stereo not shown),12.65,1.215,-1.631
O=C(NC1CC1)[C@H]1C[C@H]2OCC[C@H]2N(CC2CCOCC2)C1,-,4.932,-
CO[C@@H]1CCN(C(=O)c2cc(C)on2)C[C@@H]1Cc1ccccc1,52.23,0.7267,17.02
CN(C)CCOCc1nnc2n1CCN(c1cnccn1)CC2,9.677,14.03,-
Cc1cc(NC(=O)Cn2ncc(Br)c2C)no1,4.771,4.201,26.01
COc1ccccc1-c1ccccc1CC1(C(=O)O)CCNCC1,-31.14,3.825,-
CC(C)Oc1cc(N2C[C@H](C3CC3)[C@@H](N)C2)nc(N)n1,15.53,-1.57,88.99
COc1ccc(Cl)cc1CC(=O)N1CCN(CC(C)(C)O)CC1,-3.703,3.237,-
CNC(=O)[C@@H]1C[C@@H](N)CN1c1nc(N2CCCC2)nc(C)c1C,9.864,-0.9091,-1.715
COc1cccc(CN(C)C(=O)CN2CC(n3nc(C)cc3C)C2)c1,4.207,1.589,1.154
CN1Cc2[nH]nc(COCC3CC3)c2C1,-,-0.1079,-
Nc1nc2c(c(NCc3nc(-c4ccncc4)n[nH]3)n1)CCCC2,34.9,-1.966,-9.307
CNC(=O)COc1ccc(CNCc2c(C)nn(C)c2N(C)C)cc1,-2.417,-8.76,-4.029
COc1ccc(CC(=O)N2CCc3nnc(N(C)C)cc3C2)cc1F,16.87,-2.004,-21.67
CSCCCN1CCN(c2ccc(Cl)cn2)CC1,30.03,-0.3661,-51.81
CN(CC1(O)CCN(c2ccccn2)C1)C(=O)Cc1ccsc1 (stereo not shown),2.795,-,11.36

Once more, the final 8:

| compound | A | B | C |
|---|---|---|---|
| `CNC(=O)[C@@H]1C[C@@H](N)CN1c1nc(N2CCCC2)nc(C)c1C` | 9.864 | -0.9091 | -1.715 |
| `COc1cccc(CN(C)C(=O)CN2CC(n3nc(C)cc3C)C2)c1` | 4.207 | 1.589 | 1.154 |
| `CN1Cc2[nH]nc(COCC3CC3)c2C1` | - | -0.1079 | - |
| `Nc1nc2c(c(NCc3nc(-c4ccncc4)n[nH]3)n1)CCCC2` | 34.9 | -1.966 | -9.307 |
| `CNC(=O)COc1ccc(CNCc2c(C)nn(C)c2N(C)C)cc1` | -2.417 | -8.76 | -4.029 |
| `COc1ccc(CC(=O)N2CCc3nnc(N(C)C)cc3C2)cc1F` | 16.87 | -2.004 | -21.67 |
| `CSCCCN1CCN(c2ccc(Cl)cn2)CC1` | 30.03 | -0.3661 | -51.81 |
| `CN(CC1(O)CCN(c2ccccn2)C1)C(=O)Cc1ccsc1` (stereo not shown) | 2.795 | - | 11.36 |

From ChEMBL document CHEMBL3988442, “University of Dundee, Small-Polar-MMV Screening Library” (2021).